Measured values from the supplement of paper PMC7830784.
Where a name gives a salt, the structure may show the parent alone. The list shows a part of the results. This data set is noisy: repeats of one test often differ as much as different tests do.

system: Brugia pahangi adult female; assay: motility inhibition on day 3 relative to DMSO vehicle; higher = more active; details: 10 µM; 3 days

Row | SMILES | motility inhibition on day 3
1 | O=C1N=C(O)NC1(c1ccccc1)c1ccccc1 [Phenytoin sodium] | 6.17%
2 | CC(=O)OCC(=O)[C@@]1(O)[C@H](OC(C)=O)C[C@H]2[C@@H]3CCC4=CC(=O)C=C[C@]4(C)[C@@]3(F)[C@@H](O)C[C@@]21C [triamcinolone diacetate] | 11.3%
3 | CC(C)Cn1cnc2c(N)nc3ccccc3c21 [imiquimod] | 31.9%
4 | NC(=O)N1c2ccccc2CC(=O)c2ccccc21 [oxcarbazepine] | < 0%
5 | Cc1c(NC(C)C)c(=O)n(-c2ccccc2)n1C [ramifenazone] | < 0%
6 | NCCc1cc[nH]n1 [betazole hydrochloride] | < 0%
7 | COc1ccc([C@@H]2Sc3ccccc3N(CCN(C)C)C(=O)[C@@H]2OC(C)=O)cc1 [Diltiazem hydrochloride] | 28.4%
8 | COc1ccc([C@@H]2Sc3ccccc3N(CCN(C)C)C(=O)[C@@H]2OC(C)=O)cc1 [diltiazem hydrochloride] | 36%
9 | Cc1cn([C@H]2C[C@H](N=[N+]=[N-])[C@@H](CO)O2)c(=O)[nH]c1=O [zidovudine [azt]] | 11.5%
10 | CCCCCCCCCCOc1cc2c(O)c(C(=O)OCC)cnc2cc1OCC [decoquinate] | 7.54%
11 | CN(C)CCN(Cc1ccc(Cl)cc1)c1ccccn1 [chloropyramine hydrochloride] | 23.7%
12 | NS(=O)(=O)Cc1noc2ccccc12 [Zonisamide] | 1.13%
13 | CC(C[N+](C)(C)C)OC(N)=O (centres undefined) [Bethanechol chloride] | 23.7%
14 | NCCC(O)(P(=O)(O)O)P(=O)(O)O [Pamidronic acid] | 7.81%
15 | COc1ccc(CN(CCN(C)C)c2ncccn2)cc1 [thonzylamine hydrochloride] | 7.7%
16 | NCC(=O)CCC(=O)O [aminolevulinic acid hydrochloride] | 16.3%
17 | CC(=O)O[C@H]1C[C@@H]2CC[C@@H]3[C@H](CC[C@@]4(C)[C@H]3C[C@H](N3CC[N+](C)(C)CC3)[C@@H]4OC(C)=O)[C@@]2(C)C[C@@H]1N1CC[N+](C)(C)CC1 [Pipecuronium Bromide] | 16.5%
18 | NC(=O)c1ccc[n+]([C@@H]2O[C@H](COP(=O)([O-])OP(=O)(O)OC[C@H]3O[C@@H](n4cnc5c(N)ncnc54)[C@H](O)[C@@H]3O)[C@@H](O)[C@H]2O)c1 [nadide] | < 0%
19 | O=C(CCCN1CCC(O)(c2ccc(Cl)cc2)CC1)c1ccc(F)cc1 [Haloperidol] | < 0%
20 | Cc1ccc(C)c(OCCCC(C)(C)C(=O)O)c1 [gemfibrozil] | 11.5%
21 | O=C(O)C[C@H](O)C[C@H](O)/C=C/c1c(C2CC2)nc2ccccc2c1-c1ccc(F)cc1 [pitavastatin calcium] | 18.9%
22 | O=C(O)/C=C/C(=O)O [fumaric acid] | 2.35%
23 | C[C@]12CCC(=O)C=C1C=C[C@@H]1[C@@H]2CC[C@@]2(C)[C@H]1CC[C@@]21CCC(=O)O1 [canrenone] | 7.07%
24 | CC1(C)[C@@H](O)CC[C@]2(C)[C@H]3C(=O)C=C4[C@@H]5C[C@@](C)(C(=O)O)CC[C@]5(C)CC[C@@]4(C)[C@]3(C)CC[C@@H]12 [enoxolone] | < 0%
25 | COC(=O)CCc1ccc(OCC(O)CNC(C)C)cc1 (centres undefined) | < 0%
26 | CN1C(C(=O)Nc2ccccn2)=C(O)c2ccccc2S1(=O)=O [piroxicam] | < 0%
27 | COc1c(C)c2c(c(O)c1C/C=C(\C)CCC(=O)OCCN1CCOCC1)C(=O)OC2 [mycophenolate mofetil] | 6.26%
28 | COCCOC(=O)C1=C(C)NC(C)=C(C(=O)OC(C)C)C1c1cccc([N+](=O)[O-])c1 (centres undefined) [Nimodipine] | 47.3%
29 | NCCS [Cysteamine hydrochloride] | 18.2%

Random excerpt: 2 records from the list, in no set order.
Row | SMILES | motility inhibition on day 3
12 | NS(=O)(=O)Cc1noc2ccccc12 [Zonisamide] | 1.13%
10 | CCCCCCCCCCOc1cc2c(O)c(C(=O)OCC)cnc2cc1OCC [decoquinate] | 7.54%
